The list shows only some results of the screen, not a fair sample: it gathers tests that were run many times, whatever their T/C, doses with no T/C, and many T/C values between a quarter and a half above the control. Other doses and runs of a compound stand elsewhere. T/C is the treated group as % of the vehicle group. Some doses have a count of surviving animals in place of a T/C: the source files T/C as zero there, which appears to mark a toxic dose or a test without result, not a measured value. Some doses without a T/C left all or most animals alive at the check, yet need not have been tolerated: survival well below the control is almost never listed, so the zero probably covers shortened survival too. Counts of survivors are from the toxicity check (mostly the fifth day) where no day follows; animals may have died later. Schedules are NCI's codes, read here as Q, the interval in days (D) or hours (H), X, the number of doses. Some entries hold several experiments; the values are given in rising order. For survival time, the PubChem record calls one and a half times the control and up active, and a quarter to a half above the control has no call in these data; cut-offs in other NCI protocols can differ. Some T/C values are followed by the survivors on the day toxicity was checked, most often the fifth; without a count, all were alive then.
System: P388 leukemia ip, CD2F1 mice, survival T/C
Test: NCI In Vivo Anticancer Drug Screen. Data for tumor model P388 Leukemia (intraperitoneal) in CD2F1 (CDF1) mice
Settings: T/C endpoint: median survival time, higher T/C = longer survival
[1] = dose: 200.0 mg/kg/injection, schedule: Q01DX005 (ip), vehicle: saline with Tween-80
[2] = dose: 200.0 mg/kg/injection, schedule: Q04DX003 (ip), vehicle: saline
[3] = dose: 400.0 mg/kg/injection, schedule: Q04DX003 (ip), vehicle: saline
[4] = dose: 200.0 mg/kg/injection, schedule: Q01DX009 (ip), vehicle: saline with Tween-80
[5] = dose: 100.0 mg/kg/injection, schedule: Q01DX009 (ip), vehicle: saline with Tween-80
[6] = dose: 200.0 mg/kg/injection, schedule: Q01DX005 (ip), vehicle: saline
[7] = dose: 200.0 mg/kg/injection, schedule: Q01DX009 (ip), vehicle: Klucel (hydroxypropylcellulose) (HPC)
[8] = dose: 200.0 mg/kg/injection, schedule: Q01DX005 (ip), vehicle: Klucel (hydroxypropylcellulose) (HPC)
[9] = dose: 100.0 mg/kg/injection, schedule: Q01DX005 (ip), vehicle: saline with Tween-80

For `C[C@]12CC[C@H](OC(=O)Cc3ccc(N(CCCl)CCCl)cc3)CC1=CC[C@@H]1[C@@H]2CC[C@]2(C)C(=O)CC[C@@H]12`, the T/C (dose: 100.0 mg/kg/injection, schedule: Q04DX003 (ip), vehicle: saline with Tween-80) was 130 % of control, the T/C (dose: 256.0 mg/kg/injection, schedule: Q01DX009 (ip), vehicle: saline) was 140 % of control and the T/C (dose: 256.0 mg/kg/injection, schedule: Q03HX016 (ip), vehicle: saline) was 136 % of control. The T/C (dose: 512.0 mg/kg/injection, schedule: Q01DX009 (sc), vehicle: saline) was 136 % of control and the T/C (dose: 2048.0 mg/kg/injection, schedule: Q01DX001 (sc), vehicle: saline) was 136 % of control.

`Cc1ncn2ncnc2c1C` was tested, and the survivor count (dose: 200.0 mg/kg/injection, schedule: Q04DX003 (ip), vehicle: saline with Tween-80) was 6 of 6 and the survivor count (dose: 400.0 mg/kg/injection, schedule: Q04DX003 (ip), vehicle: saline with Tween-80) was 0 of 6.

In the case of `CC([NH-])C[NH-].[Br][Pt+2][Br]` (stereo not drawn), the T/C (dose: 12.5 mg/kg/injection, schedule: Q04DX002 (ip), vehicle: saline with Tween-80) is reported as 145 % of control, the survivor count (dose: 25.0 mg/kg/injection, schedule: Q04DX002 (ip), vehicle: saline with Tween-80) is reported as 4 of 6 and the survivor count (dose: 50.0 mg/kg/injection, schedule: Q04DX002 (ip), vehicle: saline with Tween-80) is reported as 1 of 6 and 6 of 6.

With `CCOC(=O)C(SC#N)[Se]c1ccccc1` (stereo not drawn) the survivor count [1] was 2 of 6.

`S=S1CC2(CSSC2)C1.[Cl][Hg][Cl]` was tested, and the survivor count (dose: 30.0 mg/kg/injection, schedule: Q01DX009 (ip), vehicle: saline) was 3 of 6.

`COc1ccc(C(=O)c2c(C(=O)NOCCCc3ccccc3)[nH]c(=O)c(C#N)c2C(=O)NOCCCc2ccccc2)cc1` was tested, and the survivor count (dose: 120.0 mg/kg/injection, schedule: Q01DX005 (ip), vehicle: saline) was 0 of 6 and the survivor count (dose: 240.0 mg/kg/injection, schedule: Q01DX005 (ip), vehicle: saline) was 0 of 6.

For `[CH3][Ge]([CH3])([Cl])[c]1cc[c]([Ge]([CH3])([CH3])[Cl])cc1`, the T/C (dose: 25.0 mg/kg/injection, schedule: Q01DX009 (ip), vehicle: saline) was 134 and 137 % of control [5 of 6 alive], the survivor count (dose: 50.0 mg/kg/injection, schedule: Q01DX009 (ip), vehicle: saline) was 5 of 6 and the survivor count (dose: 100.0 mg/kg/injection, schedule: Q01DX009 (ip), vehicle: saline) was 3 of 6. The survivor count (dose: 200.0 mg/kg/injection, schedule: Q01DX009 (ip), vehicle: saline) was 1 of 6, the survivor count [2] was 1 of 6 and the survivor count [3] was 0 of 6.

For `CNC(=O)Nc1[nH]c(=O)ncc1I`, the survivor count (dose: 240.0 mg/kg/injection, schedule: Q01DX005 (ip), vehicle: Klucel (hydroxypropylcellulose) (HPC)) was 0 of 6.

For `ClC1CCC[N-]C1.ClC1CCC[N-]C1.[Cl][Pt+2][Cl]` (stereo not drawn), the T/C (dose: 25.0 mg/kg/injection, schedule: Q01DX009 (ip), vehicle: Klucel (hydroxypropylcellulose) (HPC)) was 125 % of control and the survivor count (dose: 100.0 mg/kg/injection, schedule: Q01DX009 (ip), vehicle: Klucel (hydroxypropylcellulose) (HPC)) was 6 of 6.

With `Clc1nc(SC2=NCCN2)c2[nH]cnc2n1` the T/C (dose: 20.0 mg/kg/injection, schedule: Q01DX009 (ip), vehicle: saline with Tween-80) was 125 % of control, the survivor count (dose: 40.0 mg/kg/injection, schedule: Q01DX009 (ip), vehicle: saline with Tween-80) was 5 of 6 and the survivor count (dose: 80.0 mg/kg/injection, schedule: Q01DX009 (ip), vehicle: saline with Tween-80) was 0 of 6.

`O=C(O)c1cccnn1` was tested, and the survivor count [4] was 1 of 6.

`CN(C)c1ccc(/C=C/c2ccnc3ccc(Cl)cc23)cc1` was tested, and the T/C (dose: 50.0 mg/kg/injection, schedule: Q01DX009 (ip), vehicle: saline with Tween-80) was 137 % of control, the survivor count [5] was 6 of 6 and the survivor count [4] was 6 of 6.

With `O=[N+]([O-])c1cc(Cl)c(Cl)cc1[N+](=O)[O-]` the survivor count [4] was 3 of 6.

With `CC(C)(O)/C=C/C(=O)C(C)(O)C1C(O)CC2(C)C3CC=C4C(CC(=O)C(O)C4(C)C)C3(C)C(=O)CC12C` (stereo not drawn) the T/C (dose: 0.5 mg/kg/injection, schedule: Q01DX009 (ip), vehicle: saline + alcohol) was 130 % of control and the T/C (dose: 1.0 mg/kg/injection, schedule: Q01DX009 (ip), vehicle: saline + alcohol) was 134 % of control.

`CC(C)NC(C)C(C)c1ccccc1` (stereo not drawn) was tested, and the survivor count (dose: 100.0 mg/kg/injection, schedule: Q04DX003 (ip), vehicle: saline) was 1 of 6, the survivor count (dose: 200.0 mg/kg/injection, schedule: Q01DX001 (ip), vehicle: saline) was 0 of 6 and the survivor count [2] was 0 of 6. The survivor count [3] was 0 of 6.

`C[n+]1ccc2ccccc2c1` was tested, and the survivor count (dose: 120.0 mg/kg/injection, schedule: Q01DX005 (ip), vehicle: saline with Tween-80) was 2 of 6 and the survivor count (dose: 240.0 mg/kg/injection, schedule: Q01DX005 (ip), vehicle: saline with Tween-80) was 0 of 6.

`O=C1C(O)=C(Cl)C(=O)C(O)=C1Cl` was tested, and the survivor count [6] was 2 of 6.

For `CN(C)N=Nc1cccc(C(N)=O)c1`, the survivor count [7] was 2 of 6.

For `c1ccc2sc(NC(Nc3nc4ccccc4s3)C34CC5CC(CC(C5)C3)C4)nc2c1`, the survivor count [5] was 6 of 6 and the survivor count [4] was 6 of 6.

In the case of `C/C(=N\NC(=S)NNC(=S)N1CCCc2ccccc21)c1ccccn1`, the survivor count (dose: 400.0 mg/kg/injection, schedule: Q04DX002 (ip), vehicle: Klucel (hydroxypropylcellulose) (HPC)) is reported as 4 of 6.

In the case of `CC(C)CCC[C@@H](C)[C@H]1CC[C@H]2[C@@H]3CC[C@H]4C[C@@H](N)CC[C@]4(C)[C@H]3CC[C@]12C`, the survivor count [8] is reported as 1 of 5.

`CSCCCNCc1ccccc1` was tested, and the survivor count [6] was 0 of 6.

For `C=C1C(=C)C2OC1c1cc3c(cc12)C(=O)C=CC3=O`, the survivor count (dose: 50.0 mg/kg/injection, schedule: Q01DX005 (ip), vehicle: saline with Tween-80) was 0 of 6 and 2 of 6, the survivor count [9] was 0 of 6 and the survivor count [1] was 0 of 6.

`C=C=CON1CCCCC1` was tested, and the survivor count (dose: 100.0 mg/kg/injection, schedule: Q01DX005 (ip), vehicle: saline) was 0 of 6 and the survivor count [6] was 0 of 6.

With `CSC(=O)NC(=O)NC(=O)c1ccc([N+](=O)[O-])cc1` the survivor count [8] was 6 of 6.

In the case of `COC(=O)c1ccccc1NC(CCN1CCN(c2ccccc2)CC1)=NC(C)(C)C`, the survivor count [7] is reported as 6 of 6.

For `N#Cc1nn(-c2ccccc2)sc1=N`, the survivor count (dose: 200.0 mg/kg/injection, schedule: Q01DX009 (ip), vehicle: other) was 2 of 6.

With `OC1CC2CCC(N2)C1c1ccccc1` (stereo not drawn) the survivor count [9] was 2 of 6 and the survivor count [1] was 0 of 6.

`COc1ccc(COCc2ccc(OC)c(O)c2)cc1O` was tested, and the survivor count [4] was 4 of 6.

With `CN1CCC/C1=C/C(=O)c1cccc([N+](=O)[O-])c1` the survivor count (dose: 400.0 mg/kg/injection, schedule: Q04DX003 (ip), vehicle: Klucel (hydroxypropylcellulose) (HPC)) was 3 of 6.

With `O=[N+]([O-])c1ccc(-c2cn3nc(-c4ccccc4)c(-c4ccccc4)nc3n2)cc1` the survivor count (dose: 100.0 mg/kg/injection, schedule: Q01DX005 (ip), vehicle: Klucel (hydroxypropylcellulose) (HPC)) was 6 of 6 and the survivor count [8] was 5 of 6.

`c1ccc2c[s+]ccc2c1` was tested, and the survivor count (dose: 200.0 mg/kg/injection, schedule: Q01DX009 (ip), vehicle: suspension in saline) was 6 of 6 and the survivor count (dose: 400.0 mg/kg/injection, schedule: Q01DX009 (ip), vehicle: suspension in saline) was 1 of 6.

With `Cc1ccc(C(=NN=C(c2ccc(C)cc2)c2ccc(C)cc2)c2ccc(C)cc2)cc1` the survivor count (dose: 400.0 mg/kg/injection, schedule: Q04DX002 (ip), vehicle: saline with Tween-80) was 6 of 6.

Reference: PubChem BioAssay AID330 (DTP/NCI, 2004)
